Data published in PMC11214053.
Results are given in words; binding and its absence hold for the method and conditions named. Binding seen in cells or lysates may run through a third protein. Some results given as binding are weak or reduced against the parent protein; the word gives no strength.

By UniProt entry, the sequences of proteins in these tests, tags left out. Residues count along the entry.
UniProt Q15109, residues 23-404: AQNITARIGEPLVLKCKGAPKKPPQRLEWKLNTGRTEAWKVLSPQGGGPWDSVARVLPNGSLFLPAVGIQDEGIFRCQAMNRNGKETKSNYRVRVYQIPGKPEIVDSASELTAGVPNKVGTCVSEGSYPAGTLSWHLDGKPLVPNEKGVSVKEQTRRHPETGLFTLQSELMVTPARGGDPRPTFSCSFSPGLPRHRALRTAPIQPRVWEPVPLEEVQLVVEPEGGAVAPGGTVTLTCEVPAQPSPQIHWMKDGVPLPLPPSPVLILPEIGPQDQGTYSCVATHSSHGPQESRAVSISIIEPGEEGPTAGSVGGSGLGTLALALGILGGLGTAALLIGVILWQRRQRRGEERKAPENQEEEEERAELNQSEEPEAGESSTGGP
UniProt Q62151, residues 23-402: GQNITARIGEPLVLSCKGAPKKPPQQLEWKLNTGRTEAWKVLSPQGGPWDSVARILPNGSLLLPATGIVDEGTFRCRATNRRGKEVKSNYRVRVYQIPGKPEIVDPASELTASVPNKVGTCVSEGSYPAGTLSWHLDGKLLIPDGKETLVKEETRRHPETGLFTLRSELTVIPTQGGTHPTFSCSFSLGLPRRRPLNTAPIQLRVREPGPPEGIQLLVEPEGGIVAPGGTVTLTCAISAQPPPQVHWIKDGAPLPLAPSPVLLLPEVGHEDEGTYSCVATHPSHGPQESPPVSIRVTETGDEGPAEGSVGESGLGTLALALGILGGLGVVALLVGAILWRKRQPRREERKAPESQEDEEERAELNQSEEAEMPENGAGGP

How the values were obtained:
[1] = target: receptor for advanced glycation end-products (RAGE), endogenous in HUVEC (human (endogenous in HUVEC)) (UniProt Q15109); assay: co-IP; HUVEC protein extracts incubated with rTOX; IP with anti-RAGE antibody on protein A/G magnetic beads; immunoblot with anti-TOX or anti-RAGE; RAGE-depleted HUVECs as control; only the binder purified
[2] = target: receptor for advanced glycation end-products (RAGE), endogenous in mouse lung (mouse (endogenous in mouse lung)) (UniProt Q62151); assay: co-IP; mouse lung lysate, IP with anti-RAGE antibody, immunoblot with anti-TOX or anti-RAGE; the legend says rTOX was injected intravenously before the lungs were lysed, the text says lung extracts were incubated with rTOX; RAGE-KO mouse lung as control; only the binder purified

B1: recombinant thymocyte selection-associated high-mobility group box protein (rTOX) (protein, UniProt O94900 1-526)
chain: MDVRFYPPPAQPAAAPDAPCLGPSPCLDPYYCNKFDGENMYMSMTEPSQDYVPASQSYPGPSLESEDFNIPPITPPSLPDHSLVHLNEVESGYHSLCHPMNHNGLLPFHPQNMDLPEITVSNMLGQDGTLLSNSISVMPDIRNPEGTQYSSHPQMAAMRPRGQPADIRQQPGMMPHGQLTTINQSQLSAQLGLNMGGSNVPHNSPSPPGSKSATPSPSSSVHEDEGDDTSKINGGEKRPASDMGKKPKTPKKKKKKDPNEPQKPVSAYALFFRDTQAAIKGQNPNATFGEVSKIVASMWDGLGEEQKQVYKKKTEAAKKEYLKQLAAYRASLVSKSYSEPVDVKTSQPPQLINSKPSVFHGPSQAHSALYLSSHYHQQPGMNPHLTAMHPSLPRNIAPKPNNQMPVTVSIANMAVSPPPPLQISPPLHQHLNMQQHQPLTMQQPLGNQLPMQVQSALHSPTMQQGFTLQPDYQTIINPTSTAAQVVTQAMEYVRSGCRNPPPQPVDWNNDYCSSGGMQRDKALYLT
For B1, the binding [1] was “binds” and the binding [2] was “binds”.
